# Literature values in US8440245B2, “Methods for making nutritional compositions comprising curcuminoids” (priority 2009, dated 2013).
# At least one compound was matched to its structure with a doubt left.
# Settings: 416 nm
smiles,measurement,value
"O=C(/C=C/c1ccc(O)cc1)CC(=O)/C=C/c1ccc(O)cc1 [BDMC, bisdemethoxycurcumin]",Color (molar absorptivity),"46,400"
